Results are given in words; binding and its absence hold for the method and conditions named. In cells and extracts the contact can be indirect. Here binding means that the protein was enriched with, or labelled near, the bait; the list need not be complete.

Amino acid sequences for entries named in this document (tags omitted). A change or cut given only in a name is not applied to a line headed by its entry.
UniProt P27796: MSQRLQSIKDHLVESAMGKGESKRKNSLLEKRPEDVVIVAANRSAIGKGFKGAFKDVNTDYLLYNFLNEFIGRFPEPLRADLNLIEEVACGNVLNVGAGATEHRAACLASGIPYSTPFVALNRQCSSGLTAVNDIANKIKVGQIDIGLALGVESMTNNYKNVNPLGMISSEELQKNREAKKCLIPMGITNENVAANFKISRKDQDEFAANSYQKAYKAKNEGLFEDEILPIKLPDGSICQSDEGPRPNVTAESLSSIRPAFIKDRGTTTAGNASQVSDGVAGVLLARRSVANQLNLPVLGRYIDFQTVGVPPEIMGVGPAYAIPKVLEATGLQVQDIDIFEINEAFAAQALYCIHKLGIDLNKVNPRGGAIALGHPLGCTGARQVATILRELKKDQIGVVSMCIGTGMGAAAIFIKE

Here are results for three molecules from paper doi:10.1101/2024.04.30.591961.

B1: Pex7 (S. cerevisiae) (receptor, UniProt P39108 1-375)
chain: MLRYHMQGFSGYGVQYSPFFDNRLAVAAGSNFGLVGNGKLFILEIDRSGRIVEVNSFLTQDCLFDLAWNESHENQVLVAQGDGTLRLFDTTFKEFPIAIFKEHEREVFSCNWNLVNRQNFLSSSWDGSIKIWSPLRKQSLMTLTPRPLEITKMVDPLNAIILKKKSFTGISKNRNCVYQAQFSPHDQNLVLSCSGNSYASLFDIRLPSGKNQNNFLVHSGLEALTCDFNKYRPYVVATGGVDNAIRIWDIRMLNKNESATIKRTVPGQLHNSSCINEIPNAHGLAIRKVTWSPHHSNILMSASYDMTCRIWRDLSNDGAKETYKTNSTDATKGSIFNFTQHSEFVFGADWSLWGKPGYVASTAWDGNLFVWNGLG
B2: ScPex39 (protein, UniProt P47087 1-132)
chain: MAAGGELSYEELLDHILNNKPIPNIVEVPNVTLDEGLASTPSLRPRPRPWEGQLQHQSHQGSLDKPNISLDIDQESLEGMTSLTRLSECYDIQSKLQINDSDNDNDDNNNDNNKGDGNDDDNNTVTANPTAR

For the assay, the target named is T1, Pex18-TPA (S. cerevisiae) (UniProt P38855).
T1 sequence: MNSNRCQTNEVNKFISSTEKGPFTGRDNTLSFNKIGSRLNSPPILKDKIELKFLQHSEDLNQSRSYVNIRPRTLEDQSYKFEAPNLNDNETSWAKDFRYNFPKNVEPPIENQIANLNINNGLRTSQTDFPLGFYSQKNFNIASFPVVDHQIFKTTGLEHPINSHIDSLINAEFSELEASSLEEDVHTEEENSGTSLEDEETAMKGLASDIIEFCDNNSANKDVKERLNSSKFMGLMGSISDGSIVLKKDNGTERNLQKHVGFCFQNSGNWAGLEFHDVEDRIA
Description: affinity purification with mass spectrometry.
As for “peroxisomal 3-ketoacyl-CoA thiolase (Pot1) (from UniProt P27796) (enzyme)”, the binding result is reported as “binds”.

Regarding B1, the binding entry was “binds”.

On to B2, for which the binding result is listed as “binds”.
